Experimental data: the supplement of paper PMC10849652
The list shows a part of the results.

Chains of the proteins cited; added tags and fusions are not shown. Lines headed by an entry give the natural chain unless they say otherwise; changes in a name come on top.
UniProt Q9NRG4: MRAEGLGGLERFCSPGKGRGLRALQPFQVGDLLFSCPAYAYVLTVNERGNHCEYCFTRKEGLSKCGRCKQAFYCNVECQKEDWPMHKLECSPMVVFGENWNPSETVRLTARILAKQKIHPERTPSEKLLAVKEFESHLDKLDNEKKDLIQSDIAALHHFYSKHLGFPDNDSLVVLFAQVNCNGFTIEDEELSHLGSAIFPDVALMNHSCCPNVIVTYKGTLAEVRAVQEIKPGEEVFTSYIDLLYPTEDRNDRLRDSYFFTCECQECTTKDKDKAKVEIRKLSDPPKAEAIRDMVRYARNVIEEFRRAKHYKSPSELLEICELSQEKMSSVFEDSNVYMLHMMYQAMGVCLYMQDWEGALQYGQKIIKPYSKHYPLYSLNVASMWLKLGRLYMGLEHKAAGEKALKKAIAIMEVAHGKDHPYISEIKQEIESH
UniProt Q0VAQ4: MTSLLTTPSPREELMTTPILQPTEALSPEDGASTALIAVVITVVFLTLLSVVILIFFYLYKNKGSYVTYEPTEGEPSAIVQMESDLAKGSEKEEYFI
UniProt Q9NXE4: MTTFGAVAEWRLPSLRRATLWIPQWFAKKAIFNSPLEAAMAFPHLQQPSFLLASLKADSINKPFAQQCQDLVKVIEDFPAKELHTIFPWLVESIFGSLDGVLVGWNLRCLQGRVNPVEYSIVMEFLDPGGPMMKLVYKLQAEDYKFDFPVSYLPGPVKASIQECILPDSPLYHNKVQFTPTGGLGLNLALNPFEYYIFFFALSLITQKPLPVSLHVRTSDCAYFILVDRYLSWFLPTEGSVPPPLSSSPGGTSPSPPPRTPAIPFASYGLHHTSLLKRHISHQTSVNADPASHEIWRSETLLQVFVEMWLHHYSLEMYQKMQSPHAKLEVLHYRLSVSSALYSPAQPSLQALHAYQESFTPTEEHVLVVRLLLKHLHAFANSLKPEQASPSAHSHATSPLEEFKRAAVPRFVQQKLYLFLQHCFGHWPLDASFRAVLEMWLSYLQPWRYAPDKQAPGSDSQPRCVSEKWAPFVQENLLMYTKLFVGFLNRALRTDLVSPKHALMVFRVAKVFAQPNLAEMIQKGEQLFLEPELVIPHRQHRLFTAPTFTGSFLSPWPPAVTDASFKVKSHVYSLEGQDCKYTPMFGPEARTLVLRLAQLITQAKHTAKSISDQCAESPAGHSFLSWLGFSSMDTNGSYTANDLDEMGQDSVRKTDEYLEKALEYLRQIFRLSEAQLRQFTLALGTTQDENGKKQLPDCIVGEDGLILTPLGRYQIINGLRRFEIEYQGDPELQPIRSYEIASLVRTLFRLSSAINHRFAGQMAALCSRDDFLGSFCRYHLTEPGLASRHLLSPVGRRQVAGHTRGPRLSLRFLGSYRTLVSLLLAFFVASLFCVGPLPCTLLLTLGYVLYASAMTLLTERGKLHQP
UniProt P58511: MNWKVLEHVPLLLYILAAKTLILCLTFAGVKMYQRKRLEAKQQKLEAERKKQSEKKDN
UniProt O60271: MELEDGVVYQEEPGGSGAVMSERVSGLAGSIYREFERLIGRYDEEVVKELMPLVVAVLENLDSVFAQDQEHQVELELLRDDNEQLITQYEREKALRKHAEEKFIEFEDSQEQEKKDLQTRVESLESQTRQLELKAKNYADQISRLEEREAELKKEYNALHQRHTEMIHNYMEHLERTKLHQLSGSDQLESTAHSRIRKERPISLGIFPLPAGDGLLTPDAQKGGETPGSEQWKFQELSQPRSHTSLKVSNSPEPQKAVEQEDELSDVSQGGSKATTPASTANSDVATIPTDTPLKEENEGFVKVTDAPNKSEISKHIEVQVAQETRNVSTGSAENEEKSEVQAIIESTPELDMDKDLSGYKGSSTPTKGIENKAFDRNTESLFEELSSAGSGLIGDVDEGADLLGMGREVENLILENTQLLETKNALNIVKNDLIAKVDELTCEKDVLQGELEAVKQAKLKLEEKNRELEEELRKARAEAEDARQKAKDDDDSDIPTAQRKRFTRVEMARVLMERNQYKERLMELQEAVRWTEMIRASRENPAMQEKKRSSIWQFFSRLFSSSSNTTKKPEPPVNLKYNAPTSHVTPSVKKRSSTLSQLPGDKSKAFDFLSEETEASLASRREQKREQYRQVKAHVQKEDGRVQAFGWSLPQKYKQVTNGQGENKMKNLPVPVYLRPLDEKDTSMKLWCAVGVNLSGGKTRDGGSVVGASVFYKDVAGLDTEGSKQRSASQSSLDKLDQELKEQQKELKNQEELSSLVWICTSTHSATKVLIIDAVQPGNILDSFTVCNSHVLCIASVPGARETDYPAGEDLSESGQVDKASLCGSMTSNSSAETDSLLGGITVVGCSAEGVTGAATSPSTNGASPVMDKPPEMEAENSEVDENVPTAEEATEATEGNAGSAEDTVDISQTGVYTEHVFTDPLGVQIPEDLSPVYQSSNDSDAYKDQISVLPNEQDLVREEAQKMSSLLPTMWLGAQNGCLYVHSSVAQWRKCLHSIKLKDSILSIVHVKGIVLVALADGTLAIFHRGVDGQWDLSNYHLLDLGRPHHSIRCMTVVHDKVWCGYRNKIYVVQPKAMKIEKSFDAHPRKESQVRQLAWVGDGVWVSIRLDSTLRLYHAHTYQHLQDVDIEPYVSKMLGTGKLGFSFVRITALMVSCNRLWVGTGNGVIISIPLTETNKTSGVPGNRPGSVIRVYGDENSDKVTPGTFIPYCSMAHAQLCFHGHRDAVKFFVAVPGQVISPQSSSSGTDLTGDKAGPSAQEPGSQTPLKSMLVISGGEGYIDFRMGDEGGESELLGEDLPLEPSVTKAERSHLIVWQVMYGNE
UniProt B2RUZ4: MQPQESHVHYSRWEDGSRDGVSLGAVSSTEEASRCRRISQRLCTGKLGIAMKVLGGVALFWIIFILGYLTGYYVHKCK
UniProt P19634, whole entry, looked up: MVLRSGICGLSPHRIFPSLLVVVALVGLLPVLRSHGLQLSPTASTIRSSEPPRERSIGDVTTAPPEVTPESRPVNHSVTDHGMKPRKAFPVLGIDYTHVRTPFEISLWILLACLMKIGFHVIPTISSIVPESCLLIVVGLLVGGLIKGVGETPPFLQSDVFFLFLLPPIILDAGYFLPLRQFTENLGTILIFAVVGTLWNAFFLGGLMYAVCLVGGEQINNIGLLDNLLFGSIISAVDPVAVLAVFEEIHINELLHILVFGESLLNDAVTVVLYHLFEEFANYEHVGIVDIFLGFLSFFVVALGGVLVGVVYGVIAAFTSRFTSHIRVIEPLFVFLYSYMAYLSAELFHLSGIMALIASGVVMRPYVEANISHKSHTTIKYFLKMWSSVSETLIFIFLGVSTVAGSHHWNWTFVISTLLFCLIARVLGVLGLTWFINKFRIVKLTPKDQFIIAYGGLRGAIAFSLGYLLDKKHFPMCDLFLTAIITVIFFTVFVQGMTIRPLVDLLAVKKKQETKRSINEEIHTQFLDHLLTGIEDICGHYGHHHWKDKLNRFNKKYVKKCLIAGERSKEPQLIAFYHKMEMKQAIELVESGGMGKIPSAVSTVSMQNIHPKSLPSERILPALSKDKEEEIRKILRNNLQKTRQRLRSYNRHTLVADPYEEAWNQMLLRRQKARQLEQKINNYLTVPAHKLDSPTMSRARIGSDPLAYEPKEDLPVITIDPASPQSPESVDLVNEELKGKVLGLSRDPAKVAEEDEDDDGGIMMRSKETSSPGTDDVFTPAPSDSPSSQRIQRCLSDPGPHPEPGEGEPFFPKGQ
UniProt Q86US8: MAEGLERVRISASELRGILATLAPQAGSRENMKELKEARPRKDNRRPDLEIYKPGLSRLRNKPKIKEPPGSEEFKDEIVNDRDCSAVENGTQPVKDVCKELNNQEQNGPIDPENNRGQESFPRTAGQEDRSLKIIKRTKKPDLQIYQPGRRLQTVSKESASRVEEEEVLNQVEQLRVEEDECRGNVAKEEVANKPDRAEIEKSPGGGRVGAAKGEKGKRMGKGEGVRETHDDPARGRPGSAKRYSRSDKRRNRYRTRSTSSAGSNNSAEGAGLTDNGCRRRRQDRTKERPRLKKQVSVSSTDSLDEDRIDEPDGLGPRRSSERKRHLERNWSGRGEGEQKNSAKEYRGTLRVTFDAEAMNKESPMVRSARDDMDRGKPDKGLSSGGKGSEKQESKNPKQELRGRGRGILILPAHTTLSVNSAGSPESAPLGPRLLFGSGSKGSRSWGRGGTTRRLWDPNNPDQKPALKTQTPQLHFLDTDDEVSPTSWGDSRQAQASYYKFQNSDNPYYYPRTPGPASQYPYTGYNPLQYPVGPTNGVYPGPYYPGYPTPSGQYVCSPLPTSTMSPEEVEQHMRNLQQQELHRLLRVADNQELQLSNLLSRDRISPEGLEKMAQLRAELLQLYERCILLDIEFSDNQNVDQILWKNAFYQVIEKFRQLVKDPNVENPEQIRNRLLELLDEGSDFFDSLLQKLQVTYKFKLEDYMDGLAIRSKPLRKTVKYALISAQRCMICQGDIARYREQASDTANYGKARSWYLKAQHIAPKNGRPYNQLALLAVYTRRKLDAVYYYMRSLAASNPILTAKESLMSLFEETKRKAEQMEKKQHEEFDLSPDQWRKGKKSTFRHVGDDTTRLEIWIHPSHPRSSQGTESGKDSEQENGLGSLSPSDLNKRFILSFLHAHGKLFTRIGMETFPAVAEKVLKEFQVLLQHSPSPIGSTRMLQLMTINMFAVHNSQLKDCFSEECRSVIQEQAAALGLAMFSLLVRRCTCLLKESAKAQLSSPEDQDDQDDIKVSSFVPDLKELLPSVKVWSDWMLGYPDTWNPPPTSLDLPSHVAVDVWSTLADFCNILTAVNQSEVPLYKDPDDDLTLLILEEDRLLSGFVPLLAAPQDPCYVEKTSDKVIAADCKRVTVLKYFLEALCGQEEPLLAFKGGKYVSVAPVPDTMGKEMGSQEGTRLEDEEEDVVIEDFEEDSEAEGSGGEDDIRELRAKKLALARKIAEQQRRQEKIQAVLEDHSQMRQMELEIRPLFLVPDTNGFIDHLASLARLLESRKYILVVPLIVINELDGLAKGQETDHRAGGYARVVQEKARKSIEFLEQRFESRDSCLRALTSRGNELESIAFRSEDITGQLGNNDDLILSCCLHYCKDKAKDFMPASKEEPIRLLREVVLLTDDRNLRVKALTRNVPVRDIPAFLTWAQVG
UniProt Q8WVI0: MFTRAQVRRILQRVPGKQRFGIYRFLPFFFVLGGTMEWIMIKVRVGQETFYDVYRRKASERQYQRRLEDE
UniProt Q96BD0: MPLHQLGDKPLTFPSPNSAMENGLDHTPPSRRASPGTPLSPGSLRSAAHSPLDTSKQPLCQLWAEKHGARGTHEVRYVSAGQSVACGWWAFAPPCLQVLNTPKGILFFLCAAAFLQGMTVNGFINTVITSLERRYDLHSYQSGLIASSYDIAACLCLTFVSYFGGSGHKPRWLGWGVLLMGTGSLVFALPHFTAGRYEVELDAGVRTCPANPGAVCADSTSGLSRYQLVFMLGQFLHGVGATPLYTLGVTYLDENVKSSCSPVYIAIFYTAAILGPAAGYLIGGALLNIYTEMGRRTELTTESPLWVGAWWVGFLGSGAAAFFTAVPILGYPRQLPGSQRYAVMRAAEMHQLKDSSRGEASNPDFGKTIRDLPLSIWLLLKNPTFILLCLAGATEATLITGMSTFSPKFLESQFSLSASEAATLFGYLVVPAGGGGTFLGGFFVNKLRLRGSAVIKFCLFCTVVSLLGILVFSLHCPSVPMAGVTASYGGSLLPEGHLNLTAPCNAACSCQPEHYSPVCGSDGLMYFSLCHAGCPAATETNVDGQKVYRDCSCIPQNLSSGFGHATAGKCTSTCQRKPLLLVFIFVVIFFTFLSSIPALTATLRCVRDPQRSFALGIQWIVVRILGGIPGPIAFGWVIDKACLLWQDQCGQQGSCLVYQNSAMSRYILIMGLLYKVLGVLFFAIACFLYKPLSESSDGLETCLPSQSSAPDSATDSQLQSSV
UniProt P02814: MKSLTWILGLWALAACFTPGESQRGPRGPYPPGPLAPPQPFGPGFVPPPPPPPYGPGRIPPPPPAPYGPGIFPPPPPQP
UniProt P0DJ93: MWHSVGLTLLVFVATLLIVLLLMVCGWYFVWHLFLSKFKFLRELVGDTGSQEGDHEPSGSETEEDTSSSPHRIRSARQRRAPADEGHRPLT
UniProt Q9H4I9: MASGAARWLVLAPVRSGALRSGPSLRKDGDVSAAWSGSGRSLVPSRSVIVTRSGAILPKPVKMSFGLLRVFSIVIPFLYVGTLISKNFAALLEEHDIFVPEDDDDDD

Legend:
Assay in all cases: log2 fold change, soluble protein after heating vs DMSO (PISA); higher = thermal stabilisation; K562 cells, 10 uM, 30 min; active = over 0.2 and 3.5 SD of the protein, either way, in both replicates (recomputed)
bafetinib = compound: Cc1ccc(NC(=O)c2ccc(CN3CC[C@H](N(C)C)C3)c(C(F)(F)F)c2)cc1Nc1nccc(-c2cncnc2)n1 [bafetinib]
Outline: (§1)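 K562 cells (2×10^6 cells/mL) were treated with 10 μM compound for 30 min, and aliquots were heated for 3 min over 48°C-58°C. Pooled aliquots were extracted in PBS with 0.5% NP-40 at 4°C, and the supernatant after 21,000xg for 90 min was measured by TMTpro 16plex LC-MS/MS with channel sums equalised. Reported thermal stability, relative to control samples and from duplicates, is a log2 fold change.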

[1] = compound: Cc1cccc(CC(=O)N2CCc3c2ccc(-c2cn(C)c4ncnc(N)c24)c3F)n1
Outline: as §1

nilotinib = compound: Cc1cn(-c2cc(NC(=O)c3ccc(C)c(Nc4nccc(-c5cccnc5)n4)c3)cc(C(F)(F)F)c2)cn1 [nilotinib]
Outline: as §1

[2] = compound: Cc1nc(Nc2n[nH]c3c2CN(C(=O)N[C@H](CN(C)C)c2ccccc2)C3(C)C)c2sccc2n1
Outline: as §1

dasatinib = compound: Cc1nc(Nc2ncc(C(=O)Nc3c(C)cccc3Cl)s2)cc(N2CCN(CCO)CC2)n1 [dasatinib]
Outline: as §1

[3] = compound: Cc1ncc(-c2ccnc(Nc3ccc(S(C)(=O)=O)cc3)n2)n1C(C)C
Outline: as §1

[4] = compound: Cn1cc(-c2ccc3c(c2)CCN3C(=O)Cc2cccc(C(F)(F)F)c2)c2c(N)ncnc21
Outline: as §1

[5] = compound: Cn1cc(-c2ccc3nnc(C(F)(F)c4ccc5ncccc5c4)n3n2)cn1
Outline: as §1

tipifarnib = compound: Cn1cncc1[C@@](N)(c1ccc(Cl)cc1)c1ccc2c(c1)c(-c1cccc(Cl)c1)cc(=O)n2C [tipifarnib]
Outline: as §1

[6] = compound: NC(=O)Nc1cc(-c2cccc(F)c2)sc1C(=O)N[C@H]1CCCNC1
Outline: as §1

[7] = compound: NC(=O)c1cnc(N[C@@H]2CCCC[C@@H]2N)nc1Nc1cccc(-n2nccn2)c1
Outline: as §1

[8] = compound: NCC(=O)Nc1ccc(-n2nc(C(F)(F)F)cc2-c2ccc3c(ccc4ccccc43)c2)cc1
Outline: as §1

entinostat = compound: Nc1ccccc1NC(=O)c1ccc(CNC(=O)OCc2cccnc2)cc1 [entinostat]
Outline: as §1

vorinostat = compound: O=C(CCCCCCC(=O)Nc1ccccc1)NO [vorinostat]
Outline: as §1

citarinostat = compound: O=C(CCCCCCNC(=O)c1cnc(N(c2ccccc2)c2ccccc2Cl)nc1)NO [citarinostat]
Outline: as §1

[9] = compound: O=C1NC(=O)C(c2cnc3ccccn23)=C1c1cn2c3c(cc(F)cc13)CN(C(=O)N1CCCCC1)CC2
Outline: as §1

[10] = compound: c1cc(OCCN2CCCCC2)cc(-c2n[nH]c3ccc(-c4nnc[nH]4)cc23)c1
Outline: as §1

mubritinib = compound: FC(F)(F)c1ccc(/C=C/c2nc(COc3ccc(CCCCn4ccnn4)cc3)co2)cc1 [mubritinib]
Outline: as §1

[11] = compound: NC1(c2ccc(-c3nc4ccn5c(=O)[nH]nc5c4cc3-c3ccccc3)cc2)CCC1
Outline: as §1

silmitasertib = compound: O=C(O)c1ccc2c(c1)nc(Nc1cccc(Cl)c1)c1ccncc12 [silmitasertib]
Outline: as §1

Measured: log2 fold change

SNX17 (UniProt Q15036)
inactive: bafetinib 0.128 | [1] -0.031 | nilotinib -0.116 | [2] 0.129 | dasatinib -0.106 | [3] -0.039 | [4] 0.114 | [5] -0.02 | tipifarnib 0.013 | [6] -0.12 | [7] -0.155 | [8] 0.003 | entinostat -0.012 | vorinostat -0.018 | citarinostat -0.085 | [9] 0.009 | [10] 0.042

SLFN14 (UniProt P0C7P3)
inactive: bafetinib -0.047 | [1] -0.059 | nilotinib -0.057 | [2] -0.192 | dasatinib 0.055 | [3] 0.069 | [4] 0.22 | [5] 0.054 | tipifarnib 0.02 | mubritinib 0.052 | [6] 0.011 | [7] 0.108 | [11] 0.377 | [8] 0.277 | entinostat 0.033 | vorinostat -0.081 | silmitasertib -0.047 | [9] -0.002

SMYD2 (UniProt Q9NRG4)
inactive: bafetinib 0.018 | [1] 0.011 | dasatinib -0.097 | [4] 0.111 | [5] -0.136 | tipifarnib -0.121 | mubritinib 0.014 | [6] 0.09 | [7] -0.122 | [11] -0.195 | [8] -0.123 | entinostat 0.028 | vorinostat 0.074 | silmitasertib 0.079 | [9] 0.09

SMAGP (UniProt Q0VAQ4)
inactive: bafetinib 0.053 | nilotinib 0.098 | [2] -0.038 | dasatinib -0.038 | [3] -0.07 | [4] -0.093 | tipifarnib 0.215 | mubritinib -0.048 | [6] -0.044 | [7] 0.319 | [11] 0.419 | entinostat -0.129 | citarinostat 0.036 | silmitasertib 0.414 | [9] -0.048 | [10] 0.002

SMPD4 isoform 2 (UniProt Q9NXE4)
inactive: bafetinib -0.026 | [1] 0.151 | dasatinib -0.285 | [4] 0.09 | tipifarnib -0.111 | mubritinib 0.108 | [7] -0.1 | [11] 0.014 | [8] -0.03 | vorinostat 0.216 | silmitasertib -0.058

SNX14 (UniProt Q9Y5W7)
inactive: bafetinib -0.081 | nilotinib -0.014 | [2] 0.009 | dasatinib -0.378 | [3] -0.016 | [5] -0.002 | tipifarnib -0.034 | mubritinib -0.128 | [6] 0.001 | [7] -0.064 | [11] 0.132 | [8] 0.058 | entinostat 0.071 | citarinostat 0.043 | silmitasertib 0.061 | [9] 0.056 | [10] 0.029

SORBS3 (UniProt O60504)
inactive: bafetinib 0.045 | [1] -0.091 | nilotinib 0.131 | [2] 0.048 | [3] -0.099 | vorinostat -0.089 | [9] -0.313

SMIM11A (UniProt P58511)
inactive: bafetinib -0.045 | nilotinib 0.065 | [2] 0.072 | [3] 0.012

SPAG9 isoform 4 (UniProt O60271)
inactive: bafetinib -0.301 | nilotinib 0.073 | [2] -0.118 | [3] 0.022 | [4] -0.072 | [5] 0.11 | mubritinib 0.074 | [6] -0.101 | [7] -0.164 | [11] -0.09 | [8] -0.199 | entinostat 0.034 | citarinostat -0.048 | silmitasertib 0.014 | [10] -0.017

SMG5 (UniProt Q9UPR3)
inactive: bafetinib 0.012 | nilotinib 0.023 | [2] -0.025 | dasatinib -0.038 | [3] -0.074 | [4] -0.127 | [5] -0.068 | tipifarnib -0.026 | mubritinib -0.108 | [6] 0.065 | [7] -0.254 | [11] 0.146 | [8] -0.038 | entinostat 0.075 | silmitasertib -0.001 | [9] 0.06

SMIM1 (UniProt B2RUZ4)
inactive: bafetinib -0.096 | [1] 0.135 | nilotinib -0.017 | [2] 0.074 | dasatinib 0.035 | [3] 0.206 | [4] 0.13 | tipifarnib 0.112 | mubritinib 0.044 | [6] 0.271 | [7] -0.047 | [11] -0.162 | entinostat 0.297 | vorinostat 0.01 | citarinostat 0.122 | silmitasertib 0.049 | [10] 0.121

SLC9A1 (UniProt P19634)
inactive: bafetinib -0.021 | [1] -0.029 | nilotinib 0.025 | [2] 0.027 | dasatinib 0.001 | [3] 0.019 | tipifarnib 0 | mubritinib -0.045 | [6] -0.019 | [7] -0.012 | [11] 0 | [8] 0.195 | entinostat -0.054 | vorinostat 0.026 | citarinostat -0.089 | silmitasertib 0.095 | [9] -0.11 | [10] -0.013

SMG6 (UniProt Q86US8)
inactive: bafetinib -0.056 | nilotinib -0.017 | [2] 0.025 | dasatinib -0.027 | [3] -0.148 | [4] -0.031 | [6] -0.054 | entinostat 0.057 | [9] 0.196

Six successive entries from above:
SORBS3 (UniProt O60504)
inactive: bafetinib 0.045 | [1] -0.091 | nilotinib 0.131 | [2] 0.048 | [3] -0.099 | vorinostat -0.089 | [9] -0.313

SMIM11A (UniProt P58511)
inactive: bafetinib -0.045 | nilotinib 0.065 | [2] 0.072 | [3] 0.012

SPAG9 isoform 4 (UniProt O60271)
inactive: bafetinib -0.301 | nilotinib 0.073 | [2] -0.118 | [3] 0.022 | [4] -0.072 | [5] 0.11 | mubritinib 0.074 | [6] -0.101 | [7] -0.164 | [11] -0.09 | [8] -0.199 | entinostat 0.034 | citarinostat -0.048 | silmitasertib 0.014 | [10] -0.017

SMG5 (UniProt Q9UPR3)
inactive: bafetinib 0.012 | nilotinib 0.023 | [2] -0.025 | dasatinib -0.038 | [3] -0.074 | [4] -0.127 | [5] -0.068 | tipifarnib -0.026 | mubritinib -0.108 | [6] 0.065 | [7] -0.254 | [11] 0.146 | [8] -0.038 | entinostat 0.075 | silmitasertib -0.001 | [9] 0.06

SMIM1 (UniProt B2RUZ4)
inactive: bafetinib -0.096 | [1] 0.135 | nilotinib -0.017 | [2] 0.074 | dasatinib 0.035 | [3] 0.206 | [4] 0.13 | tipifarnib 0.112 | mubritinib 0.044 | [6] 0.271 | [7] -0.047 | [11] -0.162 | entinostat 0.297 | vorinostat 0.01 | citarinostat 0.122 | silmitasertib 0.049 | [10] 0.121

SLC9A1 (UniProt P19634)
inactive: bafetinib -0.021 | [1] -0.029 | nilotinib 0.025 | [2] 0.027 | dasatinib 0.001 | [3] 0.019 | tipifarnib 0 | mubritinib -0.045 | [6] -0.019 | [7] -0.012 | [11] 0 | [8] 0.195 | entinostat -0.054 | vorinostat 0.026 | citarinostat -0.089 | silmitasertib 0.095 | [9] -0.11 | [10] -0.013

Further results follow:

SMCR8 (UniProt Q8TEV9)
inactive: bafetinib 0.044 | [1] 0.009 | nilotinib -0.006 | [2] 0 | dasatinib -0.068 | [3] -0.021 | [4] 0.01 | tipifarnib 0.04 | mubritinib 0.01 | [6] 0.036 | [7] -0.004 | [11] -0.012 | entinostat -0.005 | vorinostat 0.055 | citarinostat -0.006 | silmitasertib -0.017 | [9] -0.022 | [10] 0.061

SMIM4 (UniProt Q8WVI0)
inactive: bafetinib 0.025 | nilotinib -0.056 | [2] 0.043 | dasatinib -0.229 | [3] 0.028 | [4] 0.024 | tipifarnib 0.004 | mubritinib -0.006 | [7] -0.27 | [11] 0.05 | [8] -0.148 | citarinostat -0.006 | silmitasertib 0.106 | [9] 0.296 | [10] -0.17

SLCO4A1 (UniProt Q96BD0)
inactive: bafetinib -0.062 | [1] -0.019 | nilotinib 0.02 | [2] -0.002 | [3] 0.016 | [4] 0 | [5] -0.15 | tipifarnib -0.074 | mubritinib 0.109 | [6] 0.034 | [7] 0.006 | [11] 0.065 | [8] -0.058 | entinostat -0.02 | vorinostat -0.004 | citarinostat -0.044 | silmitasertib 0.115 | [9] -0.007 | [10] -0.062

SMR3B (UniProt P02814)
inactive: bafetinib -0.079 | nilotinib 0.021 | [2] -0.081 | [3] 0.277

SMG7 isoform 4 (UniProt Q92540)
inactive: bafetinib -0.116 | [1] 0.087 | nilotinib -0.005 | [2] -0.008 | dasatinib -0.03 | [3] -0.036 | [4] -0.164 | [5] -0.117 | tipifarnib 0.096 | [6] 0.022 | [8] -0.088 | entinostat 0.04 | vorinostat 0.014 | citarinostat 0.034 | [9] -0.037 | [10] -0.058

SMARCA2 (UniProt P51531)
inactive: bafetinib 0.105 | [1] 0.015 | nilotinib -0.007 | [2] -0.054 | [3] -0.049 | [5] 0.112 | mubritinib 0.057 | [7] 0.071 | [11] -0.099 | vorinostat 0.163 | citarinostat 0.161 | silmitasertib -0.033 | [10] 0.008

SMIM13 (UniProt P0DJ93)
inactive: bafetinib -0.128 | nilotinib 0.016 | [2] 0.025 | [3] -0.284 | [5] 0.12 | tipifarnib 0.234 | mubritinib 0.051 | [6] -0.164 | [11] 0.08 | entinostat -0.179 | citarinostat -0.038 | silmitasertib 0.029 | [10] 0.039

SNAP91 (UniProt O60641)
inactive: bafetinib -0.088 | [1] 0.134 | nilotinib 0 | [2] -0.098 | dasatinib -0.054 | [3] 0.004 | [4] 0.053 | [5] -0.068 | mubritinib 0.08 | [6] -0.019 | [7] 0.025 | [11] -0.034 | [8] 0.002 | entinostat 0.024 | vorinostat 0.076 | citarinostat 0.153 | silmitasertib 0.024 | [9] -0.033 | [10] 0.007

SMDT1 (UniProt Q9H4I9)
inactive: bafetinib -0.138 | [1] 0.006 | dasatinib 0.005 | [4] 0.137 | mubritinib 0.068 | [6] -0.062 | [7] 0.032 | [11] -0.061 | [8] -0.039 | entinostat 0.01 | vorinostat -0.038 | citarinostat 0.002 | silmitasertib 0.041 | [9] -0.011 | [10] -0.001
